Results published in article PMC9144539.
These are yes or no findings as the source states them, for the method shown. For some assays here: Binding seen in cells or lysates may run through a third protein. Some binding calls cover weakened binding; strength is not graded here. Sequences can lack the tags named with a protein.

T1: split YFP fusion of AFP1 (Arabidopsis) (UniProt Q9LQ98)
T1 sequence: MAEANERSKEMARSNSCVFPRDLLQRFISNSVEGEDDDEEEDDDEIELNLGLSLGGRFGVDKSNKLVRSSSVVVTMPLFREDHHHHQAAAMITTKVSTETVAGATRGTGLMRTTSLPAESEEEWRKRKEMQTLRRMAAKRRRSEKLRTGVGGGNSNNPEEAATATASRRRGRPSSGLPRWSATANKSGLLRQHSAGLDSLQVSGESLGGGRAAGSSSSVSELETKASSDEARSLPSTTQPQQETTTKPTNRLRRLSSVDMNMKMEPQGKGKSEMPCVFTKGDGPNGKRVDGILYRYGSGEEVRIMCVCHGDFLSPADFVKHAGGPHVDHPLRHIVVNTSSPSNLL

T2: split YFP fusion of AFP2 (Arabidopsis) (UniProt Q9LMX5)
T2 sequence: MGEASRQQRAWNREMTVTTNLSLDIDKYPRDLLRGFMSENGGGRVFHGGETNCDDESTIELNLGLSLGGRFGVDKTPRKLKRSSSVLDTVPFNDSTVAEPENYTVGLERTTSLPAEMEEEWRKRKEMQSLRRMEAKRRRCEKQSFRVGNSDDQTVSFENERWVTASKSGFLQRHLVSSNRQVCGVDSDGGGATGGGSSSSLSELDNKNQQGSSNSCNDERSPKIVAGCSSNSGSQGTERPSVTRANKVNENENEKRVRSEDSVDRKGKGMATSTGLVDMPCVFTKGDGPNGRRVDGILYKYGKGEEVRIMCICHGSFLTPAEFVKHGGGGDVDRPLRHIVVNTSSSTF

T3: GAL4 binding domain fusion of AFP2 (ABI5-binding protein 2) (Arabidopsis) (UniProt Q9LMX5)
T3 sequence: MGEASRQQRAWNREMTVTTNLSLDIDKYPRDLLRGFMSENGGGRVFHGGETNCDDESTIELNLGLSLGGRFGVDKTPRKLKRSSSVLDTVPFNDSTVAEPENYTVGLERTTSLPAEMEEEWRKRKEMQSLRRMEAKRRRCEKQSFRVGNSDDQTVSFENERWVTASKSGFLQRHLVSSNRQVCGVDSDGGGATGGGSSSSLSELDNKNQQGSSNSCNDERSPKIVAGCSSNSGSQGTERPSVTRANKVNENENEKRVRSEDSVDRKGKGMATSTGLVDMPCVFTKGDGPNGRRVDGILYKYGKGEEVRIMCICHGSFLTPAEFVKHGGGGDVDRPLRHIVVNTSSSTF

T4: GAL4 binding domain fusion of AFP1 (ABI5-binding protein 1) (Arabidopsis) (UniProt Q9LQ98)
T4 sequence: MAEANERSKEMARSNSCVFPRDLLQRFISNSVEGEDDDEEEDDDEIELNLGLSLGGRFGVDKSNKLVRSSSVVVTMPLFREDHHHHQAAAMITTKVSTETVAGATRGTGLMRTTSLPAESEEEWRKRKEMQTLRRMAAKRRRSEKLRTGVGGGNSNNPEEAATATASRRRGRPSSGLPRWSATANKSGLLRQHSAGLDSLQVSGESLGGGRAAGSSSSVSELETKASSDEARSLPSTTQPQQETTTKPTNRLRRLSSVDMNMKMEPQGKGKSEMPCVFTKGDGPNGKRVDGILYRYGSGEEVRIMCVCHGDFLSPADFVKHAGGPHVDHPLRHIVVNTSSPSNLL

T5: GAL4 binding domain fusion of ABI5 (Arabidopsis) (UniProt Q9SJN0)
T5 sequence: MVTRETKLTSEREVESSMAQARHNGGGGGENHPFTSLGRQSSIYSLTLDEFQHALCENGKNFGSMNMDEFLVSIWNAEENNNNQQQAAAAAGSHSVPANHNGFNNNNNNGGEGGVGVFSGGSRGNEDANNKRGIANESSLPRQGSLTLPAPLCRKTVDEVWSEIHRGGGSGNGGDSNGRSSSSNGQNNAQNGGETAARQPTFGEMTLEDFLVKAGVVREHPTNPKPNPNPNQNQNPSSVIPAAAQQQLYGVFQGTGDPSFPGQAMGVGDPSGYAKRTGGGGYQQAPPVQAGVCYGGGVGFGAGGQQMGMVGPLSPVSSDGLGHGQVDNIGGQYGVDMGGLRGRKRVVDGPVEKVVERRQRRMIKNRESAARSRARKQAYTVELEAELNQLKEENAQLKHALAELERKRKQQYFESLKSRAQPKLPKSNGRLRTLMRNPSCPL


What was measured:
[1] = molecular target: T1, split YFP fusion of AFP1 (Arabidopsis); assay: split reporter; split YFP (BiFC) in N. benthamiana; DELLAs in pSITE-cEYFP-C1; done as described in ref. 32
[2] = molecular target: T2, split YFP fusion of AFP2 (Arabidopsis); assay: as above
[3] = molecular target: T3, GAL4 binding domain fusion of AFP2 (ABI5-binding protein 2) (Arabidopsis); assay: two-hybrid; GAL4 AD fusions (pACT2lox) and GAL4 BD fusions; matings between haploid yeast lines, replica-plated on selective media; growth on -HALW shows activation of the HIS3 and ADE2 reporters
[4] = molecular target: T4, GAL4 binding domain fusion of AFP1 (ABI5-binding protein 1) (Arabidopsis); assay: as above
[5] = molecular target: T5, GAL4 binding domain fusion of ABI5 (Arabidopsis); assay: as above

Row | Binder | binding [1] | binding [2] | binding [3] | binding [4] | binding [5]
1 | GAL4 activation domain fusion of ABI5 (protein, UniProt Q9SJN0 1-442) MVTRETKLTSEREVESSMAQARHNGGGGGENHPFTSLGRQSSIYSLTLDEFQHALCENGKNFGSMNMDEFLVSIWNAEENNNNQQQAAAAAGSHSVPANHNGFNNNNNNGGEGGVGVFSGGSRGNEDANNKRGIANESSLPRQGSLTLPAPLCRKTVDEVWSEIHRGGGSGNGGDSNGRSSSSNGQNNAQNGGETAARQPTFGEMTLEDFLVKAGVVREHPTNPKPNPNPNQNQNPSSVIPAAAQQQLYGVFQGTGDPSFPGQAMGVGDPSGYAKRTGGGGYQQAPPVQAGVCYGGGVGFGAGGQQMGMVGPLSPVSSDGLGHGQVDNIGGQYGVDMGGLRGRKRVVDGPVEKVVERRQRRMIKNRESAARSRARKQAYTVELEAELNQLKEENAQLKHALAELERKRKQQYFESLKSRAQPKLPKSNGRLRTLMRNPSCPL | – | – | binds | binds | –
2 | GAL4 activation domain fusion of the DELLA domain of RGA2 (codons 1-121) (domain or fragment, UniProt Q9LQT8 1-121) MKRDHHHHHHQDKKTMMMNEEDDGNGMDELLAVLGYKVRSSEMADVAQKLEQLEVMMSNVQEDDLSQLATETVHYNPAELYTWLDSMLTDLNPPSSNAEYDLKAIPGDAILNQFAIDSASS | – | – | – | – | binds

The remaining lines, values ahead:

Row | binding [1] | binding [2] | binding [3] | binding [4] | binding [5] | Binder
3 | binds | binds | – | – | – | split YFP fusion of ABI5 (protein, UniProt Q9SJN0 1-442) MVTRETKLTSEREVESSMAQARHNGGGGGENHPFTSLGRQSSIYSLTLDEFQHALCENGKNFGSMNMDEFLVSIWNAEENNNNQQQAAAAAGSHSVPANHNGFNNNNNNGGEGGVGVFSGGSRGNEDANNKRGIANESSLPRQGSLTLPAPLCRKTVDEVWSEIHRGGGSGNGGDSNGRSSSSNGQNNAQNGGETAARQPTFGEMTLEDFLVKAGVVREHPTNPKPNPNPNQNQNPSSVIPAAAQQQLYGVFQGTGDPSFPGQAMGVGDPSGYAKRTGGGGYQQAPPVQAGVCYGGGVGFGAGGQQMGMVGPLSPVSSDGLGHGQVDNIGGQYGVDMGGLRGRKRVVDGPVEKVVERRQRRMIKNRESAARSRARKQAYTVELEAELNQLKEENAQLKHALAELERKRKQQYFESLKSRAQPKLPKSNGRLRTLMRNPSCPL
4 | – | – | binds weakly | binds weakly | binds | GAL4 activation domain fusion of the GRAS domain of RGA2 (codons 115-533) (domain or fragment, UniProt Q9LQT8 115-533) AIDSASSSNQGGGGDTYTTNKRLKCSNGVVETTTATAESTRHVVLVDSQENGVRLVHALLACAEAVQKENLTVAEALVKQIGFLAVSQIGAMRKVATYFAEALARRIYRLSPSQSPIDHSLSDTLQMHFYETCPYLKFAHFTANQAILEAFQGKKRVHVIDFSMSQGLQWPALMQALALRPGGPPVFRLTGIGPPAPDNFDYLHEVGCKLAHLAEAIHVEFEYRGFVANTLADLDASMLELRPSEIESVAVNSVFELHKLLGRPGAIDKVLGVVNQIKPEIFTVVEQESNHNSPIFLDRFTESLHYYSTLFDSLEGVPSGQDKVMSEVYLGKQICNVVACDGPDRVERHETLSQWRNRFGSAGFAAAHIGSNAFKQASMLLALFNGGEGYRVEESDGCLMLGWHTRPLIATSAWKLSTN
